Measurements reported in PubChem BioAssay AID1508588 (Peter MacCallum Cancer Centre, 2020).
Assay: 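Which gene losses make BRAF-mutant melanoma cells more responsive to vemurafenib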 (primary screen). Cells: human WM266.4 melanoma cells (BRAF V600 mutant). Knock-down reagent: siRNA pool against human genes, 40 nM. Time to read-out: 96 h from transfection to read-out. Conditions: vemurafenib 300 nM (about IC25), added 48 h after transfection, for 48 h; comparison arm got DMSO vehicle only. Detection: 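Ratios to non-targeting siRNA for cell gain, counted as DAPI nuclei after minus before drug and averaged over two replicates, and for absorbance-read medium lactate per cell; both binned into fold-change classes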. Scale: cell gain with vemurafenib: higher = more cell gain than with non-targeting siRNA; lactate per cell with vemurafenib: higher = more lactate made per cell. Hit rule: 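a knock-down counts as enhancing when its fold-change classes with vehicle and with vemurafenib, taken together, show a stronger drug effect on cell gain or lactate per cell; exact class pairs not stated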. Meaning of the calls: active = enhances vemurafenib effect; inactive = no enhancement seen.
Here is an unselected part of about 18,000 reagents tested. Of all reagents, 790 (4.4%) got an active call. 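Calls rest on a combination of fold-change classes in drug and vehicle arms, not all shown here.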 Reagent sequences are not shown.

no.	Gene	cell gain with vemurafenib	lactate per cell with vemurafenib	outcome
1	TMEM201	0.92	0.68	inactive
2	SDHAF1	0.08	1.82	inactive
3	MAP2K7	0.37	0.44	active
4	NEDD9	0.71	1.29	inactive
5	SLC27A1	0.68	1.29	inactive
6	MYO18B	0.78	0.64	inactive
7	TLN1	0.78	1.37	inactive
8	SRPK3	1.23	0.44	inactive
9	MAT1A	0.88	0.28	inactive
10	SLC38A5	0.33	0.4	active
11	PRDM7	0.95	0.38	inactive
12	SVOPL	0.32	0.79	inactive
13	ZBTB26	0.72	0.46	active
14	HRNR	0.9	0.5	inactive
15	WNT7B	0.49	0.6	inactive
16	GAS2L1	0.71	0.97	inactive
17	GSDMC	0.74	1.1	inactive
18	PGAP2	0.31	1.42	inactive
19	HBG1	0.19	1.21	inactive
20	RGS8	0.5	1.77	inactive
21	RHOJ	0.51	1.49	inactive
22	EBP	1.11	0.51	inactive
23	GPR148	0.35	0.66	inactive
24	PPAT	0.88	0.24	inactive
25	PKN3	0.56	1.23	inactive
26	REP15	0.56	0.76	inactive
27	PPP1R8	0.48	0.72	inactive
28	CEACAM4	0.18	2.29	inactive
29	KCNV2	0.41	0.6	active
30	LIN37	0.47	1.06	inactive
31	FAT1	0.85	0.86	inactive
32	RBMXL2	1.36	0.96	inactive
33	NPNT	0.92	0.84	inactive
34	ARFGEF3	0.69	1.11	inactive
35	EBPL	0.81	0.74	inactive
36	FLT3	0.43	0.48	inactive
37	GOT1L1	0.93	0.44	active
38	TMT1A	0.9	1.27	inactive
39	ITGA1	0.64	1.19	inactive
40	ATP9A	0.68	0.66	inactive
41	DCLK2	0.35	1.07	inactive
42	ANKRD17	0.26	1.56	inactive
43	BLNK	0.31	0.98	inactive
44	ZNF296	0.47	1.05	inactive
45	RASGRF1	0.83	0.64	inactive
46	OR1N2	0.44	0.14	inactive
47	SYT5	0.82	0.6	inactive
48	SIGLEC15	0.66	0.66	inactive
49	KCNK6	0.5	0.42	active
50	TROAP	0.85	1.17	inactive
51	JUND	0.42	0.6	inactive
52	UBE2D4	0.94	0.98	inactive
53	RAX2	-0.06	2.39	inactive
54	SPATA16	0.3	0.66	inactive
55	CHST6	0.57	1.79	inactive
56	KCND1	0.62	1.1	inactive
57	ABCB8	1.01	0.4	inactive
58	ELAVL2	0.76	0.55	inactive
59	CHMP2B	0.34	1.64	inactive
60	PLA2G15	0.87	0.82	inactive
61	CALY	0.83	1.04	inactive
62	ZNF875	1.25	0.49	inactive
63	OIT3	1.01	1.25	inactive
64	CTSD	0.81	0.95	inactive
65	DNAJC25	0.43	0.45	active
66	JADE2	1.11	0.97	inactive
67	IDH1	0.74	0.96	inactive
68	BAALC	0.29	1.59	inactive
69	PLXNA3	0.77	0.71	inactive
70	SLC39A3	0.99	0.68	inactive
71	CDHR4	-0.04	1.21	inactive
72	PIMREG	0.47	0.92	inactive
73	STARD6	0.76	0.84	inactive
74	DCLRE1B	0.31	1.05	inactive
75	TTC29	0.72	0.57	inactive
76	CRAT	0.37	0.68	inactive
77	LGALSL	0.47	1.4	inactive
78	TAF1D	0.79	0.69	inactive
79	PRKG1	0.62	1.18	inactive
80	CTPS2	1.02	0.58	inactive
81	TRIM65	1.37	0.58	inactive
82	ADAMTS14	0.16	1.96	inactive
83	CITED1	0.54	0.74	inactive
84	HINFP	0.66	1.04	inactive
85	PZP	0.73	1.1	inactive
86	RNF31	1.03	0.68	inactive
87	ELSPBP1	0.2	1.05	inactive
88	PGLYRP4	0.68	0.84	inactive
89	PCDHGB2	0.22	1.08	inactive
90	LIPH	1.1	0.68	inactive
91	CERS5	0.94	0.59	inactive
92	SEMA3C	0.08	0.73	inactive
93	SLC16A14	0.84	0.92	inactive
94	TMEM203	0.12	1.7	inactive
95	CBR4	0.53	0.62	inactive
96	COPZ2	-0.09	3.43	inactive
97	LMF2	0.58	0.86	inactive
98	CAPN1	0.63	1.52	inactive
99	NCAPH	0.74	1.73	inactive
100	OTUD5	0.57	0.73	inactive
101	KBTBD8	0.51	1.7	inactive
102	XYLB	0.57	1	inactive
103	OR1J2	0.84	0.52	inactive
104	H2BC9	0.38	1.66	inactive
105	PLCG1	0.61	0.88	inactive
106	STAG3L2	0.74	1.08	inactive
107	ZNF148	1.04	0.75	inactive

Limited to “lactate per cell with vemurafenib”, for 15 of the entries above:
JUND: 0.6
UBE2D4: 0.98
RAX2: 2.39
SPATA16: 0.66
CHST6: 1.79
KCND1: 1.1
ABCB8: 0.4
ELAVL2: 0.55
CHMP2B: 1.64
PLA2G15: 0.82
CALY: 1.04
ZNF875: 0.49
OIT3: 1.25
CTSD: 0.95
DNAJC25: 0.45
